Results from publication PMC5996148.
The list shows a part of the results. For some of these results: The source does not settle which construct or isoform was used.

By UniProt entry, the sequences of proteins in these tests, tags left out. Where a name states a change or a piece, a line headed by the entry shows the natural chain unless it says otherwise.
UniProt Q6UWZ7: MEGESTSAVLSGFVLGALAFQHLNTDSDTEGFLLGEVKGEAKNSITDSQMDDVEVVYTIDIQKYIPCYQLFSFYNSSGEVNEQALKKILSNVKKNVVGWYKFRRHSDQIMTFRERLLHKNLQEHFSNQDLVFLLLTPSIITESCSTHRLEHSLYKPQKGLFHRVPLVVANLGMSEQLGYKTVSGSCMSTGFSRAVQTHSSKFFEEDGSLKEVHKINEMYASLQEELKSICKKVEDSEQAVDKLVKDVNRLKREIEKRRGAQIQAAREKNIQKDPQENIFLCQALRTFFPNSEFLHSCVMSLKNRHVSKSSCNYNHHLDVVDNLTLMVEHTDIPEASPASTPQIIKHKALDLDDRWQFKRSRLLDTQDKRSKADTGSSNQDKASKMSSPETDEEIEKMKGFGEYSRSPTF

Experiments:
Assay in all cases: protein microarray (ProtoArray v5.0), streptavidin-Alexa Fluor 647
Conditions in all cases: 3'-biotin; 20 mM Tris (pH 7.5), 5 mM MgCl2, 100 mM KCl, 0.1% Tween-20, A/T-rich and random oligonucleotide blockers; temperature not stated; high values mean tight binding
[1] = molecular target: CCDC98 (UniProt Q6UWZ7)
[2] = test system: CCL14 (human)
[3] = test system: CCL3 (human)
[4] = test system: CCL3L3 (human)
[5] = test system: CCL4 (human)
[6] = molecular target: T1, CCND3 (UniProt P30281)
T1 sequence: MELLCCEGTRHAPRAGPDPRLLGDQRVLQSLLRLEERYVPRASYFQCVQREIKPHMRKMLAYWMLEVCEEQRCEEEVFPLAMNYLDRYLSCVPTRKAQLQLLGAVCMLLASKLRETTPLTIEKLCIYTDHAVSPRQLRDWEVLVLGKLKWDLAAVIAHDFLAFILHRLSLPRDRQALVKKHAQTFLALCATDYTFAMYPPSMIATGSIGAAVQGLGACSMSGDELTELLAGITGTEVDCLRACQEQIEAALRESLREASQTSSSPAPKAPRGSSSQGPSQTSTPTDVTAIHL

[7] = test system: CCNDBP1 (human)
[8] = molecular target: T2, CCNF (UniProt P41002)
T2 sequence: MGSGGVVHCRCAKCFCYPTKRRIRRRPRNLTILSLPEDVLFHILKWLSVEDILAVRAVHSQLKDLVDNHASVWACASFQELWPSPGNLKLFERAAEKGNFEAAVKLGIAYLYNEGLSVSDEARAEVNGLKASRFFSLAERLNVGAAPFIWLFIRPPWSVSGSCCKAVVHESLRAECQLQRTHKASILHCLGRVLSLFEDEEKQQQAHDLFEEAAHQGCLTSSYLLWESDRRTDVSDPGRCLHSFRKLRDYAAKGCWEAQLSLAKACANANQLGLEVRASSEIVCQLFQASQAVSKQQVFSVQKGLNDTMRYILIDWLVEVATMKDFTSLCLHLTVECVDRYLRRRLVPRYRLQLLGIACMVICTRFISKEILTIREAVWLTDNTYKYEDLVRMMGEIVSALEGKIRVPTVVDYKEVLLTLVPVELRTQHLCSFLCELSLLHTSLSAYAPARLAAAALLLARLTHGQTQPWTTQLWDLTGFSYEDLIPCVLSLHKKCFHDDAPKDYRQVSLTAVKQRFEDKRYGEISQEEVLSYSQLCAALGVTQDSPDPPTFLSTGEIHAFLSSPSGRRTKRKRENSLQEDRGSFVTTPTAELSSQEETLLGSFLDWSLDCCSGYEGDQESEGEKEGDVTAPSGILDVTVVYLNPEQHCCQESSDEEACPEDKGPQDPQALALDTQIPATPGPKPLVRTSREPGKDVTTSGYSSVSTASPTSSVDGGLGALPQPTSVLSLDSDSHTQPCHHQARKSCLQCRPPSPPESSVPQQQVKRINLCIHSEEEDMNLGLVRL

[9] = test system: CCRK (human)
[10] = test system: CCT2 (human)

“GGGAGGCTGAGGCAGG [G4-1 biotinylated (PQS2)]” was tested, and the binding signal [1] was -0.325 z-score, the binding signal [2] was -0.308 z-score and the binding signal [3] was -0.35 z-score. It also gave a binding signal [4] of -0.332 z-score, a binding signal [5] of -0.336 z-score and a binding signal [6] of -0.327 z-score. For the same sequence, the binding signal [7] was -0.328 z-score, the binding signal [8] was -0.348 z-score and the binding signal [9] was -0.324 z-score. For the same sequence, the binding signal [10] was -0.336 z-score.
